This is one part of the list. The signal is at background level for most entries.
Columns and labels:
Assay in all cases: fluorescence intensity of antibody binding to polysaccharide-coupled beads; higher = stronger binding
[1] = target: pneumococcal polysaccharide Pn23F
[2] = target: pneumococcal polysaccharide Pn24A
[3] = target: pneumococcal polysaccharide Pn24B
[4] = target: pneumococcal polysaccharide Pn24F
[5] = target: pneumococcal polysaccharide Pn25A
[6] = target: pneumococcal polysaccharide Pn25F
[7] = target: pneumococcal polysaccharide Pn27
[8] = target: pneumococcal polysaccharide Pn28A
[9] = target: pneumococcal polysaccharide Pn28F
[10] = target: pneumococcal polysaccharide Pn29
[11] = target: pneumococcal polysaccharide Pn3
[12] = target: pneumococcal polysaccharide Pn31
[13] = target: pneumococcal polysaccharide Pn32A
[14] = target: pneumococcal polysaccharide Pn32F
[15] = target: pneumococcal polysaccharide Pn33A
[16] = target: pneumococcal polysaccharide Pn33B
[17] = target: pneumococcal polysaccharide Pn33C
[18] = target: pneumococcal polysaccharide Pn33D
[19] = target: pneumococcal polysaccharide Pn33F
[20] = target: pneumococcal polysaccharide Pn34
[21] = target: pneumococcal polysaccharide Pn35A
[22] = target: pneumococcal polysaccharide Pn35B
[23] = target: pneumococcal polysaccharide Pn35C
[24] = antibody concentration 2.8593 ng/mL
[25] = antibody concentration 15.2894 ng/mL
[26] = antibody concentration 81.7561 ng/mL
[27] = antibody concentration 437.17 ng/mL
[28] = antibody concentration 2337.65 ng/mL
[29] = antibody concentration 12500 ng/mL
[30] = antibody concentration 0.1 ng/mL
[31] = antibody concentration 0.534724 ng/mL

B1: 4-173.2 (protein)
chain 1: QLQLQESGPGLVKPSETLSLTCAVSGGSINSNYWSWIRQPPGKGLDWIGRISGSGGSTDYNPSLKSRVTISTDTSKTQFSLKLRSVTAADTAVYYCGRGSYQIDYWGQGILVTVSS
chain 2: QAALTQPPSMSGSPGQSVTISCTGTSSDIGGYNRVSWYQQYPGKAPKLMIYEVSKRPSGVSDRFSGSKSGNTASLTISGLQAADEADYYCSSYAGSKALFGGGTRLTVL
fluorescence intensity [1, 24]: 18.5 MFI | fluorescence intensity [1, 25]: 20 MFI | fluorescence intensity [1, 26]: 18.2 MFI | fluorescence intensity [1, 27]: 20 MFI | fluorescence intensity [1, 28]: 26 MFI | fluorescence intensity [1, 29]: 32.5 MFI | fluorescence intensity [2, 30]: 16 MFI | fluorescence intensity [2, 31]: 15.5 MFI | fluorescence intensity [2, 24]: 16 MFI | fluorescence intensity [2, 25]: 15.2 MFI | fluorescence intensity [2, 26]: 15 MFI | fluorescence intensity [2, 27]: 16.5 MFI | fluorescence intensity [2, 28]: 17.5 MFI | fluorescence intensity [2, 29]: 34.5 MFI | fluorescence intensity [3, 30]: 18 MFI | fluorescence intensity [3, 31]: 18 MFI | fluorescence intensity [3, 24]: 17 MFI | fluorescence intensity [3, 25]: 18 MFI | fluorescence intensity [3, 26]: 17.2 MFI | fluorescence intensity [3, 27]: 20 MFI | fluorescence intensity [3, 28]: 24.5 MFI | fluorescence intensity [3, 29]: 58.5 MFI | fluorescence intensity [4, 30]: 18.5 MFI | fluorescence intensity [4, 31]: 18.5 MFI | fluorescence intensity [4, 24]: 17 MFI | fluorescence intensity [4, 25]: 16.5 MFI | fluorescence intensity [4, 26]: 15.8 MFI | fluorescence intensity [4, 27]: 18.5 MFI | fluorescence intensity [4, 28]: 26.5 MFI | fluorescence intensity [4, 29]: 44.8 MFI | fluorescence intensity [5, 30]: 24 MFI | fluorescence intensity [5, 31]: 25 MFI | fluorescence intensity [5, 24]: 23 MFI | fluorescence intensity [5, 25]: 22.8 MFI | fluorescence intensity [5, 26]: 25 MFI | fluorescence intensity [5, 27]: 26.5 MFI | fluorescence intensity [5, 28]: 30 MFI | fluorescence intensity [5, 29]: 37.2 MFI | fluorescence intensity [6, 30]: 31.5 MFI | fluorescence intensity [6, 31]: 29.5 MFI | fluorescence intensity [6, 24]: 30.5 MFI | fluorescence intensity [6, 25]: 32 MFI | fluorescence intensity [6, 26]: 31.5 MFI | fluorescence intensity [6, 27]: 32.5 MFI | fluorescence intensity [6, 28]: 35.5 MFI | fluorescence intensity [6, 29]: 47.5 MFI | fluorescence intensity [7, 30]: 16.2 MFI | fluorescence intensity [7, 31]: 16.5 MFI | fluorescence intensity [7, 24]: 17.2 MFI | fluorescence intensity [7, 25]: 17.5 MFI | fluorescence intensity [7, 26]: 18.8 MFI | fluorescence intensity [7, 27]: 20.5 MFI | fluorescence intensity [7, 28]: 36 MFI | fluorescence intensity [7, 29]: 200 MFI | fluorescence intensity [8, 30]: 25.5 MFI | fluorescence intensity [8, 31]: 27 MFI | fluorescence intensity [8, 24]: 28 MFI | fluorescence intensity [8, 25]: 26.8 MFI | fluorescence intensity [8, 26]: 29 MFI | fluorescence intensity [8, 27]: 28 MFI | fluorescence intensity [8, 28]: 30 MFI | fluorescence intensity [8, 29]: 36.2 MFI | fluorescence intensity [9, 30]: 29.5 MFI | fluorescence intensity [9, 31]: 31.5 MFI | fluorescence intensity [9, 24]: 30 MFI | fluorescence intensity [9, 25]: 31.5 MFI | fluorescence intensity [9, 26]: 31.2 MFI | fluorescence intensity [9, 27]: 30 MFI | fluorescence intensity [9, 28]: 35.5 MFI | fluorescence intensity [9, 29]: 80 MFI | fluorescence intensity [10, 30]: 16 MFI | fluorescence intensity [10, 31]: 15 MFI | fluorescence intensity [10, 24]: 16.5 MFI | fluorescence intensity [10, 25]: 16.2 MFI | fluorescence intensity [10, 26]: 16 MFI | fluorescence intensity [10, 27]: 19 MFI | fluorescence intensity [10, 28]: 26.5 MFI | fluorescence intensity [10, 29]: 85.5 MFI | fluorescence intensity [11, 30]: 16 MFI | fluorescence intensity [11, 31]: 43.5 MFI | fluorescence intensity [11, 24]: 140 MFI | fluorescence intensity [11, 25]: 614 MFI | fluorescence intensity [11, 26]: 3320 MFI | fluorescence intensity [11, 27]: 8480 MFI | fluorescence intensity [11, 28]: 9420 MFI | fluorescence intensity [11, 29]: 9640 MFI | fluorescence intensity [12, 30]: 14.5 MFI | fluorescence intensity [12, 31]: 13.8 MFI | fluorescence intensity [12, 24]: 14 MFI | fluorescence intensity [12, 25]: 15.5 MFI | fluorescence intensity [12, 26]: 14.5 MFI | fluorescence intensity [12, 27]: 16.5 MFI | fluorescence intensity [12, 28]: 23.2 MFI | fluorescence intensity [12, 29]: 115 MFI | fluorescence intensity [13, 30]: 17.5 MFI | fluorescence intensity [13, 31]: 17 MFI | fluorescence intensity [13, 24]: 18 MFI | fluorescence intensity [13, 25]: 19 MFI | fluorescence intensity [13, 26]: 19 MFI | fluorescence intensity [13, 27]: 20.2 MFI | fluorescence intensity [13, 28]: 23.5 MFI | fluorescence intensity [13, 29]: 45.2 MFI | fluorescence intensity [14, 30]: 26.5 MFI | fluorescence intensity [14, 31]: 29 MFI | fluorescence intensity [14, 24]: 29.5 MFI | fluorescence intensity [14, 25]: 28.5 MFI | fluorescence intensity [14, 26]: 29 MFI | fluorescence intensity [14, 27]: 34.2 MFI | fluorescence intensity [14, 28]: 44.8 MFI | fluorescence intensity [14, 29]: 57.8 MFI | fluorescence intensity [15, 30]: 18 MFI | fluorescence intensity [15, 31]: 19.5 MFI | fluorescence intensity [15, 24]: 18.5 MFI | fluorescence intensity [15, 25]: 15.5 MFI | fluorescence intensity [15, 26]: 19 MFI | fluorescence intensity [15, 27]: 21 MFI | fluorescence intensity [15, 28]: 63.8 MFI | fluorescence intensity [15, 29]: 656 MFI | fluorescence intensity [16, 30]: 19 MFI | fluorescence intensity [16, 31]: 17.5 MFI | fluorescence intensity [16, 24]: 18 MFI | fluorescence intensity [16, 25]: 17.2 MFI | fluorescence intensity [16, 26]: 19.2 MFI | fluorescence intensity [16, 27]: 17 MFI | fluorescence intensity [16, 28]: 20 MFI | fluorescence intensity [16, 29]: 29 MFI | fluorescence intensity [17, 30]: 19.8 MFI | fluorescence intensity [17, 31]: 18.5 MFI | fluorescence intensity [17, 24]: 20.5 MFI | fluorescence intensity [17, 25]: 19 MFI | fluorescence intensity [17, 26]: 18 MFI | fluorescence intensity [17, 27]: 20 MFI | fluorescence intensity [17, 28]: 25 MFI | fluorescence intensity [17, 29]: 69.5 MFI | fluorescence intensity [18, 30]: 16 MFI | fluorescence intensity [18, 31]: 15.8 MFI | fluorescence intensity [18, 24]: 17.2 MFI | fluorescence intensity [18, 25]: 15.8 MFI | fluorescence intensity [18, 26]: 15.5 MFI | fluorescence intensity [18, 27]: 17.2 MFI | fluorescence intensity [18, 28]: 18 MFI | fluorescence intensity [18, 29]: 32 MFI | fluorescence intensity [19, 30]: 13.5 MFI | fluorescence intensity [19, 31]: 13.5 MFI | fluorescence intensity [19, 24]: 14 MFI | fluorescence intensity [19, 25]: 13.5 MFI | fluorescence intensity [19, 26]: 15.5 MFI | fluorescence intensity [19, 27]: 16.8 MFI | fluorescence intensity [19, 28]: 35.5 MFI | fluorescence intensity [19, 29]: 295 MFI | fluorescence intensity [20, 30]: 14.5 MFI | fluorescence intensity [20, 31]: 13.5 MFI | fluorescence intensity [20, 24]: 15 MFI | fluorescence intensity [20, 25]: 14.2 MFI | fluorescence intensity [20, 26]: 13 MFI | fluorescence intensity [20, 27]: 14 MFI | fluorescence intensity [20, 28]: 15.5 MFI | fluorescence intensity [20, 29]: 20 MFI | fluorescence intensity [21, 30]: 17 MFI | fluorescence intensity [21, 31]: 16 MFI | fluorescence intensity [21, 24]: 16 MFI | fluorescence intensity [21, 25]: 16.5 MFI | fluorescence intensity [21, 26]: 17 MFI | fluorescence intensity [21, 27]: 16.5 MFI | fluorescence intensity [21, 28]: 25.5 MFI | fluorescence intensity [21, 29]: 114 MFI | fluorescence intensity [22, 30]: 19 MFI | fluorescence intensity [22, 31]: 17.5 MFI | fluorescence intensity [22, 24]: 20.5 MFI | fluorescence intensity [22, 25]: 18.5 MFI | fluorescence intensity [22, 26]: 19 MFI | fluorescence intensity [22, 27]: 18.5 MFI | fluorescence intensity [22, 28]: 23.2 MFI | fluorescence intensity [22, 29]: 76.8 MFI | fluorescence intensity [23, 30]: 21 MFI | fluorescence intensity [23, 31]: 20 MFI | fluorescence intensity [23, 24]: 21 MFI | fluorescence intensity [23, 25]: 19.5 MFI | fluorescence intensity [23, 26]: 18.5 MFI | fluorescence intensity [23, 27]: 19 MFI

Source: the supplement of paper PMC11438910
